From article PMC6181910
No constants are given. Whether binding was seen depends on the method and setting. Binding seen in cells or lysates may run through a third protein. Some entries that bind do so weakly or less than the wild type.

Chains of the proteins cited; added tags and fusions are not shown. Residues count along the entry.
UniProt P06213, residues 28-1382: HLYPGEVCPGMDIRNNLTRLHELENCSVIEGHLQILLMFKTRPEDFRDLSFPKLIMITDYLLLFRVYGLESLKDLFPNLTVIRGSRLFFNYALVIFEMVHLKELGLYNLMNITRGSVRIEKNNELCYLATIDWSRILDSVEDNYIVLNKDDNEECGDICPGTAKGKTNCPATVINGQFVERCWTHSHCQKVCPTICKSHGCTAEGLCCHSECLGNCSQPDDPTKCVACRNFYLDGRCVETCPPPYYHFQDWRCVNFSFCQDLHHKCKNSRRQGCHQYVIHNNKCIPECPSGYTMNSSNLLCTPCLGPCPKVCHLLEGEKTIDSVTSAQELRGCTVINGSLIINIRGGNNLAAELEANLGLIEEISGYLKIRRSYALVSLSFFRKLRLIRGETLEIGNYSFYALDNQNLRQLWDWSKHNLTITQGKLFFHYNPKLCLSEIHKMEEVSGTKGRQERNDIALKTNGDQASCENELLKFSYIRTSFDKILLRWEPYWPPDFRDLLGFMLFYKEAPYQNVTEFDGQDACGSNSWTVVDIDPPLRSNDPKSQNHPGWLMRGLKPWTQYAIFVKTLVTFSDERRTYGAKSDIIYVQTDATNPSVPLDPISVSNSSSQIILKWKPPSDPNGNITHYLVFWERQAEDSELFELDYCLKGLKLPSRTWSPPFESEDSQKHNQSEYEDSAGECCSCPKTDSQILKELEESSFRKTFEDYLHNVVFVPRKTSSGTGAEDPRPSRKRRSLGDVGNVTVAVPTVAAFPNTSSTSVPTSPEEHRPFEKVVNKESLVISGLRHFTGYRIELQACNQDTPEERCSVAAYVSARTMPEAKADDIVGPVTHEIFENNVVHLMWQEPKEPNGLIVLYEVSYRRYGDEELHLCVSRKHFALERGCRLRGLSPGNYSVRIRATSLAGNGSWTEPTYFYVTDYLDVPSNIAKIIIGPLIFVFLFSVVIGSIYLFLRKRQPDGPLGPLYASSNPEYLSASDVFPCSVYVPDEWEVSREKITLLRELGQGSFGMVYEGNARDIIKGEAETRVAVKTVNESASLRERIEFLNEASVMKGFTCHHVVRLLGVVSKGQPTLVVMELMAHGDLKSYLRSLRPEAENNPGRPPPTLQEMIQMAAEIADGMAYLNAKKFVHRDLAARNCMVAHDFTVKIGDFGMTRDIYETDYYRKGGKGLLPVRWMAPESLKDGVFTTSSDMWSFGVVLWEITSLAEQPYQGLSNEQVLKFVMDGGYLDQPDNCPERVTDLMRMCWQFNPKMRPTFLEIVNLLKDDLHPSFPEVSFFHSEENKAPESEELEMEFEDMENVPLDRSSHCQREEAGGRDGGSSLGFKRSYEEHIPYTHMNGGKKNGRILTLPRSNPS

Biological target: insulin receptor precursor (INSR) (human (endogenous in T cells)) (UniProt P06213)
Experiment: co-IP; INSR-specific antibody coupled to Dynabeads Protein A/G, added to the lysate of T cells; precipitate read by Western blot; cells with control, lnc-INSR overexpression or mutant lnc-INSR (less MARCH1 and c-CBL with lnc-INSR overexpression, no difference with the mutant)

B1: membrane-associated ring-CH-type finger-1 (MARCH1) (enzyme, UniProt Q8TCQ1 1-289)
chain: MLGWCEAIARNPHRIPNNTRTPEISGDLADASQTSTLNEKSPGRSASRSSNISKASSPTTGTAPRSQSRLSVCPSTQDICRICHCEGDEESPLITPCRCTGTLRFVHQSCLHQWIKSSDTRCCELCKYDFIMETKLKPLRKWEKLQMTTSERRKIFCSVTFHVIAITCVVWSLYVLIDRTAEEIKQGNDNGVLEWPFWTKLVVVAIGFTGGLVFMYVQCKVYVQLWRRLKAYNRVIFVQNCPDTAKKLEKNFSCNVNTDIKDAVVVPVPQTGANSLPSAEGGPPEVVSV
binding: binds
